{"source": "patent US12491514B2", "about": "“Device, system, and method for trapping tissue samples” (University of Washington, priority 2019, dated 2025)", "key": {"[1]": {"assay": "Diffusion of fluorescein in collagen-filled microchannels of the device", "format": "physicochemical", "conditions": "1 mM source, first 16 hours, 10 and 12.5 mm from source, quadratic fit to Fick's second law"}, "[2]": {"conditions": "literature value; cited from earlier work"}}, "note": "At least one compound was matched to its structure with a doubt left.", "data": [{"smiles": "O=C1OC2(c3ccc(O)cc3Oc3cc(O)ccc32)c2ccccc21", "note": "[fluorescein]", "values": [{"measurement": "effective diffusivity in collagen", "setting": "[1]", "value": "6.04×10^−10 m^2/s"}, {"measurement": "reported diffusion constant", "setting": "[2]", "value": "4.25×10^−10 m^2/s"}]}]}
